Data on one substance can be found in article PMC6183346.

The chains behind the UniProt entries cited, without tags or fusion partners.
UniProt P06428: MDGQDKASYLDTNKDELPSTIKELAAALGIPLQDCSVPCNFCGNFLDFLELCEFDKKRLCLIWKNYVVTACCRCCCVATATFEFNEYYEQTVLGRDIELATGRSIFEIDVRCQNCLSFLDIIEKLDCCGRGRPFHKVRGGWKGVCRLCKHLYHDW
UniProt Q01968: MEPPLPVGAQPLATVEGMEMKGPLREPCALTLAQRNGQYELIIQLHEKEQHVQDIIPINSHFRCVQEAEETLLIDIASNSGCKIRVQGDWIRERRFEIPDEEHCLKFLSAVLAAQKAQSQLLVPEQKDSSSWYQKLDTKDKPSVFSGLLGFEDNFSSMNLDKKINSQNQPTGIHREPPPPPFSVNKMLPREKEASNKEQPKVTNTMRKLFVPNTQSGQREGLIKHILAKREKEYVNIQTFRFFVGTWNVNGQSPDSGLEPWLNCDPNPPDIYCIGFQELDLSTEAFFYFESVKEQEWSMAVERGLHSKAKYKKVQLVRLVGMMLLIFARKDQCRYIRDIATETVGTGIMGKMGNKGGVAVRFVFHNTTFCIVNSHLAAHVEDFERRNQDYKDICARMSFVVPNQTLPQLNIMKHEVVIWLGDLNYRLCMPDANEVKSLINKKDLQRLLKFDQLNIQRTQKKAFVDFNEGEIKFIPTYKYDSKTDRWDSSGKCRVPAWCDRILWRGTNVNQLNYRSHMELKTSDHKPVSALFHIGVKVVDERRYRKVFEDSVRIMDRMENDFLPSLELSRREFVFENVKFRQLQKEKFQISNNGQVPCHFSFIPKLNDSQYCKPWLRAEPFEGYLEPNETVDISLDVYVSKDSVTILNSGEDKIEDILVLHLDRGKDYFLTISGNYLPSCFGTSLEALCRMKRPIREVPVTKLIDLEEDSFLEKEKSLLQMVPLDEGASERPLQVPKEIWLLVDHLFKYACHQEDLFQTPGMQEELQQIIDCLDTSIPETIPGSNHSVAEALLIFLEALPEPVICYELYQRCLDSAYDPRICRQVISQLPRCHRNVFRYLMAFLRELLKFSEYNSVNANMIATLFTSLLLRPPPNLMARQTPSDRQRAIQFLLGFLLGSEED

These are yes or no findings as the source states them, for the method shown. In cells and extracts the contact can be indirect. These calls come from enrichment with a bait or labelling near it, and not all partners need be listed.

In this assay the target is Flag-tagged HPV8-E6wt (human papillomavirus type 8) (UniProt P06428). The assay is described as follows: affinity purification with mass spectrometry; immunoprecipitation-coupled mass spectroscopy of HPV8-E6; construct, cells and conditions not told.

“inositol-polyphosphate-5-phosphatase (OCRL1) (from UniProt Q01968 1-901) (enzyme)”: the binding entry is on record as “binds”.
